Measured values from the supplement of paper PMC10849652.
The other results are listed elsewhere or left out.

By UniProt entry, the sequences of proteins in these tests, tags left out. Where a name states a change or a piece, a line headed by the entry shows the natural chain unless it says otherwise.
UniProt Q9NX61: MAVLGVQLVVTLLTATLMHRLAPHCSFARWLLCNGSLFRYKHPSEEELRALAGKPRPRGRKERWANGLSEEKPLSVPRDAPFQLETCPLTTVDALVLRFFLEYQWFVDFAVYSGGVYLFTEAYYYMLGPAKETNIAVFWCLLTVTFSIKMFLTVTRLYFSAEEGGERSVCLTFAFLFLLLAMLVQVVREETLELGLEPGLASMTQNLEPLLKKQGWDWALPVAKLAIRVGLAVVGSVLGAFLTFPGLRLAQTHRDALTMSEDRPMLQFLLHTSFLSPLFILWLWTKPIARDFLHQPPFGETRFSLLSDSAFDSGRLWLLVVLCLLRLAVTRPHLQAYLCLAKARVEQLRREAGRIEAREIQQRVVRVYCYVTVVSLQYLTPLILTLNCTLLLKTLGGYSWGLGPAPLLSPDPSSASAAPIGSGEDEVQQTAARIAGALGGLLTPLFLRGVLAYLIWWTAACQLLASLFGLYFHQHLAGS
UniProt Q8NBN3: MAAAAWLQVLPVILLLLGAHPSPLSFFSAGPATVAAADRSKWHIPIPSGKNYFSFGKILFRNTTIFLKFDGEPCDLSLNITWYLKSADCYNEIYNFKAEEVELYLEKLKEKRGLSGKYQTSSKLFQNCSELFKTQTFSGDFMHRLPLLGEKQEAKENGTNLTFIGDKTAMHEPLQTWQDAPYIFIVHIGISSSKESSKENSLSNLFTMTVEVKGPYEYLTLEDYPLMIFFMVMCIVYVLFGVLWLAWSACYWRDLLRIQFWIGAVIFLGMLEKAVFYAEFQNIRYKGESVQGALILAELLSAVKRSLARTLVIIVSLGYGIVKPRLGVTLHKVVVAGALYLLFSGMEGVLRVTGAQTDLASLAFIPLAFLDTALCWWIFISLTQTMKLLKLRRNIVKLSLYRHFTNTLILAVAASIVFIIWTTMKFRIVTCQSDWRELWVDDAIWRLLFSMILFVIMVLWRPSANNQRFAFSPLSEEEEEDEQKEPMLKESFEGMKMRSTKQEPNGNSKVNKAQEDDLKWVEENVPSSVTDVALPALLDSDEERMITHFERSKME
UniProt Q9BUB7: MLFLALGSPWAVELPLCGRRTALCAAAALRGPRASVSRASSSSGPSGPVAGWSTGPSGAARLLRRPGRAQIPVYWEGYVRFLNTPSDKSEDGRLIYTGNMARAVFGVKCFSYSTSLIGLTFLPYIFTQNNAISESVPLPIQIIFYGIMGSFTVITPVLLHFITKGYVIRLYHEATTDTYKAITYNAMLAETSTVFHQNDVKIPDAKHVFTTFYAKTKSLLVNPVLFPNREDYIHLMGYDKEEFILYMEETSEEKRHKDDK
UniProt Q9NQ34: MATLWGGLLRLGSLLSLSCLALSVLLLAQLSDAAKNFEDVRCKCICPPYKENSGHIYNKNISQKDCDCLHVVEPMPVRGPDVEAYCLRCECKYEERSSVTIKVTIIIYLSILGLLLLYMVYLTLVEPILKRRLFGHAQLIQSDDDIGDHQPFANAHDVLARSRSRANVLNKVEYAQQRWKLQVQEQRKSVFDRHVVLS
UniProt Q9P2C4: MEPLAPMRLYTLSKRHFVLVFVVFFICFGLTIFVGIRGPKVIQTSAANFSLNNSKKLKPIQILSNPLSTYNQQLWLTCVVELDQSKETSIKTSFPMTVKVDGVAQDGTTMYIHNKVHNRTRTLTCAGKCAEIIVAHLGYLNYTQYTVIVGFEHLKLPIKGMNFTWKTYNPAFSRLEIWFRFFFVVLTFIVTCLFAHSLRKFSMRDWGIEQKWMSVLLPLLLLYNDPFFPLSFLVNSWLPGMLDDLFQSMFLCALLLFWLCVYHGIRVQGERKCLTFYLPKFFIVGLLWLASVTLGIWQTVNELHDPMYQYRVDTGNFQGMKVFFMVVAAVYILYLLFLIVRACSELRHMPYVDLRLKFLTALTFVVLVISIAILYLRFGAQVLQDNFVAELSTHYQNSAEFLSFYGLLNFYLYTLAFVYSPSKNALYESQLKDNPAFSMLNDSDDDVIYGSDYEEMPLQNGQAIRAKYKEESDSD
UniProt Q9HD45: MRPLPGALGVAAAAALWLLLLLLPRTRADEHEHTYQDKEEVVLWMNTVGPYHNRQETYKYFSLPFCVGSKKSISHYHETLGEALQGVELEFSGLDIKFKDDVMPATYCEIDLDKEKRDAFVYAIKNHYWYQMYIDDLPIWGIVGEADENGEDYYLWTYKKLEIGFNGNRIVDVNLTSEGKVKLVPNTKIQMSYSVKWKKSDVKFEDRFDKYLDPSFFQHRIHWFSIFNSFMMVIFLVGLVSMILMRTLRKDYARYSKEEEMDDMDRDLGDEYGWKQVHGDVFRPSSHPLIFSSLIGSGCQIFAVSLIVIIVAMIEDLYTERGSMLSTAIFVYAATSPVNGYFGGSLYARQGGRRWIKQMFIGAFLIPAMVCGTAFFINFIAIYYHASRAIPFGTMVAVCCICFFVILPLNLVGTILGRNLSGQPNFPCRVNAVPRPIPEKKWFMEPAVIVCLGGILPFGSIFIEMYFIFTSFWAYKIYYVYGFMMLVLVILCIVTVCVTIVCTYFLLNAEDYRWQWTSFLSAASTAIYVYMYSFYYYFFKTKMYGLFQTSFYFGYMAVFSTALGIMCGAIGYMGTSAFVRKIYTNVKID
UniProt Q9NV96: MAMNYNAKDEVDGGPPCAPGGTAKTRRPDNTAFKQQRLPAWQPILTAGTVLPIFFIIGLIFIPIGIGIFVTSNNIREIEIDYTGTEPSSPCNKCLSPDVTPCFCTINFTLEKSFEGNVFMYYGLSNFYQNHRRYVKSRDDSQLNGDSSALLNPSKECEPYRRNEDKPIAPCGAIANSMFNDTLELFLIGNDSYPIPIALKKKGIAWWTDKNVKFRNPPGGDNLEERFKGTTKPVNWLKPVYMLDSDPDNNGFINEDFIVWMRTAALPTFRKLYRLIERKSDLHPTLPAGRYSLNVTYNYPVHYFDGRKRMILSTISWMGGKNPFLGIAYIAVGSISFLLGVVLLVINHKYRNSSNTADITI
UniProt Q969X1: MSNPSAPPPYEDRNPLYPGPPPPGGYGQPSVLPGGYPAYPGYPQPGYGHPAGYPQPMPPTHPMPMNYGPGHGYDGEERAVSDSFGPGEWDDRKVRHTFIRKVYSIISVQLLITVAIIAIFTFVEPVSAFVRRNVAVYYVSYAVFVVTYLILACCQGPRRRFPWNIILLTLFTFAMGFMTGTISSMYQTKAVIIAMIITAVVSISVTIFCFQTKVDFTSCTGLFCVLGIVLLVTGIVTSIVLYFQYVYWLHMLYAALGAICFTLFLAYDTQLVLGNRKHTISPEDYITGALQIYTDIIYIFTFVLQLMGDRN
UniProt Q9UKI8: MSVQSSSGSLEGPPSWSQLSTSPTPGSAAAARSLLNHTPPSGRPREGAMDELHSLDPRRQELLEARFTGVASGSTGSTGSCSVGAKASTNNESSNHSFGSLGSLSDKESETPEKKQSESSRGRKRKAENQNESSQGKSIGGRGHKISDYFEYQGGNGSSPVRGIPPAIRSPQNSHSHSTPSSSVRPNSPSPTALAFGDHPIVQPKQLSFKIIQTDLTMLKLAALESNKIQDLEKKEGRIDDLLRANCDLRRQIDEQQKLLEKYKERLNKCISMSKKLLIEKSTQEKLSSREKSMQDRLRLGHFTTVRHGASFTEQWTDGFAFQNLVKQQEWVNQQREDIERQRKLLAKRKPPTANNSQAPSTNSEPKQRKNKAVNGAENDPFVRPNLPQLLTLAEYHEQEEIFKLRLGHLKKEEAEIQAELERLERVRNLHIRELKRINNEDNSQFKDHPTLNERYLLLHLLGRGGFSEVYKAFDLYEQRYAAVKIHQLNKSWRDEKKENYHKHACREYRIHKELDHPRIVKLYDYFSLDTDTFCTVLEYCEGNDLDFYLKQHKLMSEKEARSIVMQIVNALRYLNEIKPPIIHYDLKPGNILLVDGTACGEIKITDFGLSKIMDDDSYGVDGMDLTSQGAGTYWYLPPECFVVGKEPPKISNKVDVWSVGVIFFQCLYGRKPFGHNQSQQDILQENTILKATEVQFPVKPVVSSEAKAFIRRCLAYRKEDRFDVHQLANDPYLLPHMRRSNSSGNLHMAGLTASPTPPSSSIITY
UniProt Q9H1E5: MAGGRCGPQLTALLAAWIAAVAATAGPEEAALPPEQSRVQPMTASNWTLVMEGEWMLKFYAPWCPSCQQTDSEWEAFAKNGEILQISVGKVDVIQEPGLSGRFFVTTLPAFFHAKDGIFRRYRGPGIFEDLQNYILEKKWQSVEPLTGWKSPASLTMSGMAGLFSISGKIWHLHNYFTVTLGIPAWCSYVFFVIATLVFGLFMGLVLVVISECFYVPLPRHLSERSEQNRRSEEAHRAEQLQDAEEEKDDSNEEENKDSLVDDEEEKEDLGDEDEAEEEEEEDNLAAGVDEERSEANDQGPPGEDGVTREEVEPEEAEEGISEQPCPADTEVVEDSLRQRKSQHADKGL
UniProt Q92544: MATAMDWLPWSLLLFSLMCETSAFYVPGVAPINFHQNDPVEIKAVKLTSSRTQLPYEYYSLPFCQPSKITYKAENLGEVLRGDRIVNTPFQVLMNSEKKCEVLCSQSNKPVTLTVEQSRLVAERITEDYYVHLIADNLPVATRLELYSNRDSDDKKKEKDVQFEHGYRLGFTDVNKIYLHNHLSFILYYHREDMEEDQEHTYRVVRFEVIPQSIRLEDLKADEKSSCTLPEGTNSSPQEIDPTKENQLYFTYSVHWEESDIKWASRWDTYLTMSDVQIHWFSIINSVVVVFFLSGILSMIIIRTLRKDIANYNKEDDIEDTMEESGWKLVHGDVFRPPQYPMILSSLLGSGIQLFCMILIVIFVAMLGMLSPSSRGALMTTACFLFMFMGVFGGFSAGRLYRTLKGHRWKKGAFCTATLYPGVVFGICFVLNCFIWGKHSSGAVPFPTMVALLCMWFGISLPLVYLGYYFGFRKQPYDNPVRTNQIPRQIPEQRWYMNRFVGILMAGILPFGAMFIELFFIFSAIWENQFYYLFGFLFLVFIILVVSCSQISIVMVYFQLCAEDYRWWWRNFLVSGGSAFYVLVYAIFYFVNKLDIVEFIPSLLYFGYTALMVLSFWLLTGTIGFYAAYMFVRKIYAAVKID
UniProt Q96B77: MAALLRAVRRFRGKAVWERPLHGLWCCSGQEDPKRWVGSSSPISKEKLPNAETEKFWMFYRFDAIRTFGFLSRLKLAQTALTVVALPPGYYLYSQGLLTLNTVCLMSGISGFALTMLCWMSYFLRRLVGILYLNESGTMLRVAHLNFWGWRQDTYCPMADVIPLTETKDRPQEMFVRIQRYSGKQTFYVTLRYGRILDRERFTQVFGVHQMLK
UniProt Q99805: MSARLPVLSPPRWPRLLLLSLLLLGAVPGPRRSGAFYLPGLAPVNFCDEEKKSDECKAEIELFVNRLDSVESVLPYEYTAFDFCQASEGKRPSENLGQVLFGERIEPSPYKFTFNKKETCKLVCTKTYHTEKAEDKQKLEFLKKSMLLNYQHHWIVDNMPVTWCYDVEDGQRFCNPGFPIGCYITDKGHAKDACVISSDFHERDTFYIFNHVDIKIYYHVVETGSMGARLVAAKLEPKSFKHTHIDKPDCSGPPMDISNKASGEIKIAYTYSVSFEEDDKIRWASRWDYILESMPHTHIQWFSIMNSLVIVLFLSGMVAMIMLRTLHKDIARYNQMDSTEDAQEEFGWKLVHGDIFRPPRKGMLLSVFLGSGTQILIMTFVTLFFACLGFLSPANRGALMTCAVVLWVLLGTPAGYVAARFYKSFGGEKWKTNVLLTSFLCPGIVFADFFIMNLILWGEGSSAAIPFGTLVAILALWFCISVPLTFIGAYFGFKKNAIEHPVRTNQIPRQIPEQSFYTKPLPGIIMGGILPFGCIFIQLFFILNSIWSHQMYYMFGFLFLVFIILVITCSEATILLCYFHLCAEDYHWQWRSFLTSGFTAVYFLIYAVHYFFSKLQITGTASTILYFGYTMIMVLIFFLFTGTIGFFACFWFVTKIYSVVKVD
UniProt O00220, whole entry, looked up: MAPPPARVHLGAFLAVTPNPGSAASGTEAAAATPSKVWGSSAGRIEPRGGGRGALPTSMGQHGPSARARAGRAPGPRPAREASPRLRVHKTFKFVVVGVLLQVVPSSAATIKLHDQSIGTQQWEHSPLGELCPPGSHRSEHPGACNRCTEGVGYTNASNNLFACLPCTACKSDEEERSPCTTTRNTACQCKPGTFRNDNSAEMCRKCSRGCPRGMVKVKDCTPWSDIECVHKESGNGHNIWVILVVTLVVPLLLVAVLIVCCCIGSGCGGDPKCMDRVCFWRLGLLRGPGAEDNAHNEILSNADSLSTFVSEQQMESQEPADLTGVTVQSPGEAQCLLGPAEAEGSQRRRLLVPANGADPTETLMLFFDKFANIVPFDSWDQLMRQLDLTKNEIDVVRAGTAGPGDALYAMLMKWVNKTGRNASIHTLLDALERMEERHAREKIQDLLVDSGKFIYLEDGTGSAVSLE
UniProt Q8N511: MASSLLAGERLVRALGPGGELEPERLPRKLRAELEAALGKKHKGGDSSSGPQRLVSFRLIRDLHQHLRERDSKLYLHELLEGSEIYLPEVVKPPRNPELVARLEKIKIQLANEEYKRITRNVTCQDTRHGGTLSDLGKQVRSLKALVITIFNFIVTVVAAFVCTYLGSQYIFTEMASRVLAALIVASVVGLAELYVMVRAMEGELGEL

compound: Cc1sc2c(c1C)C(c1ccc(Cl)cc1)=N[C@@H](CC(=O)OC(C)(C)C)c1nnc(C)n1-2; experiment: log2 fold change, soluble protein after heating vs DMSO (PISA); higher = thermal stabilisation; K562 cells, 10 uM, 30 min; active = over 0.2 and 3.5 SD of the protein, either way, in both replicates (recomputed)
In short: (§1)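 Soluble protein was defined as the supernatant after 21,000xg for 90 min. It came from K562 cells at 2×10^6 cells/mL given 10 μM compound for 30 min, heated in aliquots for 3 min across 48°C-58°C, pooled, and extracted in PBS with 0.5% NP-40 at 4°C, and was quantified by TMTpro 16plex LC-MS/MS with equalised channel sums. Thermal stability against control samples, from duplicates, is reported as log2 fold change.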

Row | Target | log2 fold change
1 | TMA16 (UniProt Q96EY4) | inactive: 0.165
2 | TMEM185B (UniProt Q9H7F4) | inactive: -0.004
3 | TMX2 (UniProt Q9Y320) | inactive: -0.147
4 | TMED5 (UniProt Q9Y3A6) | inactive: -0.025
5 | TMEM161A (UniProt Q9NX61) | inactive: -0.133
6 | TMEM87A (UniProt Q8NBN3) | inactive: 0.012
7 | TMEM135 (UniProt Q86UB9) | inactive: -0.014
8 | TMEM167A (UniProt Q8TBQ9) | inactive: -0.025
9 | TMUB2 (UniProt Q71RG4) | inactive: 0.09
10 | TMEM68 (UniProt Q96MH6) | inactive: 0.003
11 | TMEM160 (UniProt Q9NX00) | inactive: 0.165
12 | TMEM70 (UniProt Q9BUB7) | inactive: -0.05
13 | TMEM126B (UniProt Q8IUX1) | inactive: 0.006
14 | TMEM9B (UniProt Q9NQ34) | inactive: -0.041
15 | TMEM181 (UniProt Q9P2C4) | inactive: 0.075
16 | TM9SF3 (UniProt Q9HD45) | inactive: 0.013
17 | TMPO (UniProt P42166) | inactive: 0.038
18 | TMPO isoform 2 (UniProt P42167) | inactive: 0.041
19 | TMUB1 (UniProt Q9BVT8) | inactive: 0.029

Row | Target | log2 fold change
20 | TMEM30A (UniProt Q9NV96) | inactive: 0.014
21 | TMBIM1 (UniProt Q969X1) | inactive: -0.005
22 | TLK1 (UniProt Q9UKI8) | inactive: -0.036
23 | TMX4 (UniProt Q9H1E5) | inactive: 0.057
24 | TMED8 (UniProt Q6PL24) | inactive: -0.017
25 | TM9SF4 (UniProt Q92544) | inactive: -0.047
26 | TMEM186 (UniProt Q96B77) | inactive: -0.024
27 | TM9SF2 (UniProt Q99805) | inactive: -0.044
28 | TMEM126A (UniProt Q9H061) | inactive: -0.015
29 | TNFRSF10A (UniProt O00220) | inactive: 0.024
30 | TMEM192 (UniProt Q8IY95) | inactive: -0.024
31 | TMEM165 (UniProt Q9HC07) | inactive: -0.005
32 | TMF1 (UniProt P82094) | inactive: 0.02
33 | TMED4 (UniProt Q7Z7H5) | inactive: -0.017
34 | TMEM173 (UniProt Q86WV6) | inactive: -0.099
35 | TLE4 isoform 3 (UniProt Q04727) | inactive: -0.051
36 | TMEM199 (UniProt Q8N511) | inactive: -0.074
37 | TNFAIP1 (UniProt Q13829) | inactive: -0.055

compound: c1ccc([C@@H]2C[C@H]2NC2CCNCC2)cc1; experiment: as above
In short: as §1

Row | Target | log2 fold change
38 | TMA16 (UniProt Q96EY4) | inactive: 0.008
39 | TMEM185B (UniProt Q9H7F4) | inactive: -0.02
40 | TMX2 (UniProt Q9Y320) | inactive: -0.033
41 | TMED5 (UniProt Q9Y3A6) | inactive: -0.029
42 | TMEM161A (UniProt Q9NX61) | inactive: 0.003
43 | TMEM87A (UniProt Q8NBN3) | inactive: 0.049
44 | TMEM135 (UniProt Q86UB9) | inactive: -0.009
45 | TMEM167A (UniProt Q8TBQ9) | inactive: 0.084
46 | TMUB2 (UniProt Q71RG4) | inactive: 0.028
47 | TMEM68 (UniProt Q96MH6) | inactive: -0.056
48 | TMEM160 (UniProt Q9NX00) | inactive: -0.069
49 | TMEM70 (UniProt Q9BUB7) | inactive: -0.002
50 | TMEM126B (UniProt Q8IUX1) | inactive: -0.009
51 | TMEM9B (UniProt Q9NQ34) | inactive: -0.011
52 | TMEM181 (UniProt Q9P2C4) | inactive: 0.015
53 | TM9SF3 (UniProt Q9HD45) | inactive: -0.041
54 | TMPO (UniProt P42166) | inactive: 0.008
55 | TMPO isoform 2 (UniProt P42167) | inactive: 0.013
56 | TMUB1 (UniProt Q9BVT8) | inactive: -0.037

Row | Target | log2 fold change
57 | TMEM30A (UniProt Q9NV96) | inactive: 0.041
58 | TMBIM1 (UniProt Q969X1) | inactive: 0.193
59 | TLK1 (UniProt Q9UKI8) | inactive: 0.018
60 | TMX4 (UniProt Q9H1E5) | inactive: 0
61 | TMED8 (UniProt Q6PL24) | inactive: -0.008
62 | TM9SF4 (UniProt Q92544) | inactive: -0.032
63 | TMEM186 (UniProt Q96B77) | inactive: 0.056
64 | TM9SF2 (UniProt Q99805) | inactive: -0.028
65 | TMEM126A (UniProt Q9H061) | inactive: -0.03
66 | TNFRSF10A (UniProt O00220) | inactive: 0.01
67 | TMEM192 (UniProt Q8IY95) | inactive: 0.032
68 | TMEM165 (UniProt Q9HC07) | inactive: 0.031
69 | TMF1 (UniProt P82094) | inactive: 0.034
70 | TMED4 (UniProt Q7Z7H5) | inactive: -0.005
71 | TMEM173 (UniProt Q86WV6) | inactive: -0.005
72 | TLE4 isoform 3 (UniProt Q04727) | inactive: 0.003
73 | TMEM199 (UniProt Q8N511) | inactive: 0.006
74 | TNFAIP1 (UniProt Q13829) | inactive: 0.043
